Substitutions are numbered along the chain they refer to. No constants are given. Whether binding was seen depends on the method and setting. Binding can be weak; no strength is given.
B1: MAdCAM Antibody Table 1 Clone 31 (scFv)
scFv: QVQLVQSGAEVKKPGASVKVSCKASGYTFTSYYMHWVRQAPGQGLEWMGIINPSGGSTSYAQKFQGRVTMTRDTSTSTVYMELSSLRSEDTAVYYCARDTGYSYGRYYYYGMDVWGQGTLVTVSSGGGGSGGGGSGGGGSGGGGSDIQMTQSPSSLSASVGDRVTITCRASQSIGRWLAWYQQKPGKAPKLLIYDASNLQSGVPSRFSGSGSGTDFTLTISSLQPEDFATYYCQQSYSIPITFGQGTKVEIK
B2: MAdCAM Antibody Table 1 Clone 36 (scFv)
scFv: B1 scFv with S31G, Y32H, L120T, Q245G
B3: MAdCAM Antibody Table 1 Clone 29 (scFv)
scFv: QVQLVQSGAEVKKPGASVKVSCKASGYTFTSYYMHWVRQAPGQGLEWMAWMNPNSGNTGYAQKFQGRVTMTRDTSTSTVYMELSSLRSEDTAVYYCARDYDFWSGSLGYWGQGTLVTVSSGGGGSGGGGSGGGGSGGGGSDIQMTQSPSSLSASVGDRVTITCRASQGISNYLAWYQQKPGKAPKLLIYAASSLQSGVPSRFSGSGSGTDFTLTISSLQPEDFATYYCQQSYSTPWTFGQGTKVEIK
B4: MAdCAM Antibody Table 1 Clone 15 (scFv)
scFv: QVQLVQSGAEVKKPGSSVKVSCKASGYTFTNYYMHWVRQAPGQGLEWMGGIIPIVDRVKYAQKFQGRVTITADESTSTAYMELSSLRSEDTAVYYCAKGRYTVNYYYGMDVWGQGTTVTVSSGGGGSGGGGSGGGGSGGGGSDIQMTQSPSSLSASVGDRVTITCQANQDISNYLNWYQQKPGKAPKLLIYRASKLEAGVPSRFSGSGSGTDFTLTISSLQPEDFATYYCQQSSEIPYSFGQGTKLEIK
B5: MAdCAM Antibody Table 1 Clone 40 (scFv)
scFv: QVQLVQSGAEVKKPGASVKVSCKASGYTFTSYGISWVRQAPGQGLEWMGIINPRGGSTIFAQKFQGRVTMTRDTSTSTVYMELSSLRSEDTAVYYCARGTRSSGWYGWFDPWGQGTLVTVSSGGGGSGGGGSGGGGSGGGGSDIQMTQSPSSLSASVGDRVTITCRASQGIGNWLAWYQQKPGKAPKLLIYAASNLETGVPSRFSGSGSGTDFTLTISSLQPEDFATYYCQQIHSYPLTFGGGTKVEIK
B6: MAdCAM Antibody Table 1 Clone 21 (scFv)
scFv: EVQLLESGGGLVQPGGSLRLSCAASGFTFSNAWMSWVRQAPGKGLEWVSTIVGNGGATYYADSVKGRFTISRDNSKNTLYLQMNSLRAEDTAVYYCARDNPLRWQGMDVWGQGTLVTVSSGGGGSGGGGSGGGGSGGGGSDIQMTQSPSSLSASVGDRVTITCRASQDISNYLNWYQQKPGKAPKLLIYAASSLQSGVPSRFSGSGSGTDFTLTISSLQPEDFATYYCQQSYSIPPTFGPGTKVDIK
B7: MAdCAM Antibody Table 1 Clone 17 (scFv)
scFv: EVQLLESGGGLVQPGGSLRLSCAASGFTFSDSAMHWVRQAPGKGLEWVSAISGSGSTIYYADSVKGRFTISRDNSKNTLYLQMNSLRAEDTAVYYCVSDIAVAGHWYFDLWGRGTLVTVSSGGGGSGGGGSGGGGSGGGGSDIQMTQSPSSLSASVGDRVTITCRASQSISTFLNWYQQKPGKAPKLLIYAASRLEGGVPSRFSGSGSGTDFTLTISSLQPEDFATYYCQQANSFPLTFGPGTKVDIK
B8: MAdCAM Antibody Table 1 Clone 16 (scFv)
scFv: EVQLLESGGGLVQPGGSLRLSCAASGFTFEDYAMHWVRQAPGKGLEWVSYLNSDGGSTSYADSVKGRFTISRDNSKNTLYLQMNSLRAEDTAVYYCAKDYCTNGVCAFDYWGQGTLVTVSSGGGGSGGGGSGGGGSGGGGSDIQMTQSPSSLSASVGDRVTITCRASQSISTYLNWYQQKPGKAPKLLIYDASNLETGVPSRFSGSGSGTDFTLTISSLQPEDFATYYCQQSYTIPITFGQGTRLEIK
B9: MAdCAM Antibody Table 1 Clone 39 (scFv)
scFv: QVQLVQSGAEVKKPGASVKVSCKASGYTFTSYYMHWVRQAPGQGLEWMGWMNPNSGNTGYAQKFQGRVTMTRDTSTSTVYMELSSLRSEDTAVYYCARDLGYYDSSGYFGAFDIWGQGTTVTVSSGGGGSGGGGSGGGGSGGGGSDIQMTQSPSSLSASVGDRVTITCQSSEDISSSLNWYQQKPGKAPKLLIYAASSLQIGVPSRFSGSGSGTDFTLTISSLQPEDFATYYCQQTYSTPYTFGQGTKVEIK
B10: MAdCAM Antibody Table 1 Clone 38 (scFv)
scFv: EVQLLESGGGLVQPGGSLRLSCAASGFTFGSYSMSWVRQAPGKGLEWVSAIGTGGGTYYADSVKGRFTISRDNSKNTLYLQMNSLRAEDTAVYYCAKGTPYYYYYGMDVWGQGTMVTVSSGGGGSGGGGSGGGGSGGGGSDIQMTQSPSSLSASVGDRVTITCRASQPLSNWLAWYQQKPGKAPKLLIYAASSLQSGVPSRFSGSGSGTDFTLTISSLQPEDFATYYCQQAISFPLTFGGGTKVEIK
B11: MAdCAM Antibody Table 1 Clone 33 (scFv)
scFv: QVQLVQSGAEVKKPGASVKVSCKASGYTFTSYGISWVRQAPGQGLEWMGWMHPKSGDTGLTQKFQGRVTMTRDTSTSTVYMELSSLRSEDTAVYYCARDTPYYYYGMDVWGQGTTVTVSSGGGGSGGGGSGGGGSGGGGSDIQMTQSPSSLSASVGDRVTITCRASQSISSWLAWYQQKPGKAPKLLIYAASSLQSGVPSRFSGSGSGTDFTLTISSLQPEDFATYYCQQSYSVPITFGQGTKVEIK
B12: MAdCAM Antibody Table 1 Clone 43 (scFv)
scFv: EVQLLESGGGLVQPGGSLRLSCAASGFTFDDFAMHWVRQAPGKGLEWVSGISGNGDSRYYADSVKGRFTISRDNSKNTLYLQMNSLRAEDTAVYYCARDASYGGNYGMDVWGQGTTVTVSSGGGGSGGGGSGGGGSGGGGSDIQMTQSPSSLSASVGDRVTITCQASQDIRNYLNWYQQKPGKAPKLLIYKASTLESGVPSRFSGSGSGTDFTLTISSLQPEDFATYYCQQANSFPLTFGPGTKVDIK
B13: MAdCAM Antibody Table 1 Clone 13 (scFv)
scFv: EVQLLESGGGLVQPGGSLRLSCAASGFTFDDYAMHWVRQAPGKGLEWVSYIDASGTTIYYADSVKGRFTISRDNSKNTLYLQMNSLRAEDTAVYYCAKDQAAAGYWYFDLWGRGTLVTVSSGGGGSGGGGSGGGGSGGGGSDIQMTQSPSSLSASVGDRVTITCQASQDISNYLNWYQQKPGKAPKLLIYKASTLESGVPSRFSGSGSGTDFTLTISSLQPEDFATYYCQQSYSTPITFGQGTRLEIK
B14: MAdCAM Antibody Table 1 Clone 14 (scFv)
scFv: QVQLVQSGAEVKKPGSSVKVSCKASGYTFTDYHIHWVRQAPGQGLEWMGGIVPRSGSTTYAQKFQGRVTITADESTSTAYMELSSLRSEDTAVYYCAKDESSGWYYFDYWGQGTLVTVSSGGGGSGGGGSGGGGSGGGGSDIVMTQSPLSLPVTPGEPASISCRSSQSLLHSNGYNYLDWYLQKPGQSPQLLIYSAYNRASGVPDRFSGSGSGTDFTLKISRVEAEDVGVYYCMQALQTPLTFGQGTKVEIK
B15: MAdCAM Antibody Table 1 Clone 42 (scFv)
scFv: QVQLVQSGAEVKKPGSSVKVSCKASGGTLSRYGVSWVRQAPGQGLEWMGGIIPIFGTTNYAQKFQGRVTITADESTSTAYMELSSLRSEDTAVYYCARDRVYYDSSGYPTWYFDLWGRGTLVTVSSGGGGSGGGGSGGGGSGGGGSEIVMTQSPATLSVSPGERATLSCRASQSVSSSYLAWYQQKPGQAPRLLIYGASTRATGIPARFSGSGSGTEFTLTISSLQSEDFAVYYCQQYGSSPITFGQGTKVEIK
B16: MAdCAM Antibody Table 1 Clone 25 (scFv)
scFv: QVQLVQSGAEVKKPGASVKVSCKASGYTLTTWYMYWVRQAPGQGLEWMGWINPNRGATNYAQKFQGRVTMTRDTSTSTVYMELSSLRSEDTAVYYCAKGDLWGAMDVWGQGTLVTVSSGGGGSGGGGSGGGGSGGGGSDIQMTQSPSSLSASVGDRVTITCRASDNIGSWLAWYQQKPGKAPKLLIYAASSLQSGVPSRFSGSGSGTDFTLTISSLQPEDFATYYCQQGYSTPPTFGQGTKVEIK
B17: MAdCAM Antibody Table 1 Clone 30 (scFv)
scFv: B16 scFv
B18: MAdCAM Antibody Table 1 Clone 26 (scFv)
scFv: B16 scFv with L113T
B19: MAdCAM Antibody Table 1 Clone 12 (scFv)
scFv: QVQLVQSGAEVKKPGASVKVSCKASGYTFTGYYMHWVRQAPGQGLEWMGWIGPNSGDTNYAQKFQGRVTMTRDTSTSTVYMELSSLRSEDTAVYYCARDLDHNWYFDLWGRGTLVTVSSGGGGSGGGGSGGGGSGGGGSDIVMTQSPLSLPVTPGEPASISCRSSQSLLHSNGYNYLDWYLQKPGQSPQLLIYSSSNRAPGVPDRFSGSGSGTDFTLKISRVEAEDVGVYYCMQALHIPLTFGGGTKVEIK
B20: MAdCAM Antibody Table 1 Clone 27 (scFv)
scFv: QVQLVQSGAEVKKPGASVKVSCKASGYTFTGYYIHWVRQAPGQGLEWMGWMNPNSGNTGYAQKFQGRVTMTRDTSTSTVYMELSSLRSEDTAVYYCARDPGFLGYCSGGSCYDGWFDPWGQGTLVTVSSGGGGSGGGGSGGGGSGGGGSDIQMTQSPSSLSASVGDRVTITCRASQSISSYLHWYQQKPGKAPKLLIYAASSLQSGVPSRFSGSGSGTDFTLTISSLQPEDFATYYCQQSYTAPYTFGQGTKLEIK
B21: MAdCAM Antibody Table 1 Clone 35 (scFv)
scFv: EVQLLESGGGLVQPGGSLRLSCAASGFSFSSYTMNWVRQAPGKGLEWVSFITSSSRTIYYADSVKGRFTISRDNSKNTLYLQMNSLRAEDTAVYYCARDRRGDYGDSWYFDLWGRGTLVTVSSGGGGSGGGGSGGGGSGGGGSEIVMTQSPATLSVSPGERATLSCRASQSVRNYLAWYQQKPGQAPRLLIYGASTRATGIPARFSGSGSGTEFTLTISSLQSEDFAVYYCQQYGSSPLTFGGGTKVEIK

target: cyno MAdCAM protein (cyno); experiment: ELISA

binding | Binder
binds | B1
binds | B2
binds | B3
binds | B4
binds | B5
binds | B6
binds | B7
binds | B8
binds | B9
binds | B10
binds | B11
binds | B12
binds | B13
binds | B14
binds | B15
binds | B16
binds | B17
binds | B18
binds | B19
binds | B20
binds | B21
